Data: PubChem BioAssay AID1671190 (National Center for Advancing Translational Sciences (NCATS), 2021)
Values joined by “and” are separate entries in the source; they are usually repeats but may differ in a detail not shown here. Equal values may be shown once. The whole screen tested about 580,000 compounds, of which about 6,100 (1.1%) were called active. Inconclusive results, whose numbers are uncertain, are shown with a selection of clear calls. Calls follow the shape of the dose curve; as a rule, active = well fitted inhibition curve with a large enough effect; inconclusive = small, poorly fitted or top-dose-only effect, or another doubt; inactive = no such curve, though single readings can be large or run the other way. Potencies of inconclusive entries are doubtful fits and often do not repeat.
% is scaled to controls: 0 for no effect and ±100 for the full control effect; potency is read from the fitted curve at half-maximal effect.

The chains behind the UniProt entries cited, without tags or fusion partners. Where a name states a change or a piece, a line headed by the entry shows the natural chain unless it says otherwise.
UniProt P18054: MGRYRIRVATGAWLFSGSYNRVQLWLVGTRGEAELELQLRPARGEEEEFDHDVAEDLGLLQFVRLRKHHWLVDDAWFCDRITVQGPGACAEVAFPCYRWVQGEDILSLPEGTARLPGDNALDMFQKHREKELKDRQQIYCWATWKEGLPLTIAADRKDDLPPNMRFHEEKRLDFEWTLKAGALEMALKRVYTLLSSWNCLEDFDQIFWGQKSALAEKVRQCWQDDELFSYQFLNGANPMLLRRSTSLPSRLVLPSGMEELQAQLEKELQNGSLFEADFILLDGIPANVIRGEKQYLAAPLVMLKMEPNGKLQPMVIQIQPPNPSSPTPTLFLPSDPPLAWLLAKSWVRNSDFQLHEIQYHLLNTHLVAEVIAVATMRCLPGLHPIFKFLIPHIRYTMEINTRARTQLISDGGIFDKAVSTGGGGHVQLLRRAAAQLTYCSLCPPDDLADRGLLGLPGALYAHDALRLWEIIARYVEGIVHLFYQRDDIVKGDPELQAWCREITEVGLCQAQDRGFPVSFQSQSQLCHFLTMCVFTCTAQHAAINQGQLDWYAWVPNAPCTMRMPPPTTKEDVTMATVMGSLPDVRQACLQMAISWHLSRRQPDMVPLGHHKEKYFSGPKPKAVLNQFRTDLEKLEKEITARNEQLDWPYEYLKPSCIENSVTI

What follows are compounds tested against Polyunsaturated fatty acid lipoxygenase ALOX12 (Homo sapiens) (UniProt P18054) (assay: Primary qHTS assay for inhibitors of human arachidonate 12S-lipoxygenase (ALOX12): Round 2). Conditions: purified 12hLO, xylenol orange hydroperoxide absorbance; activity change, negative = inhibition: at 108 µM (top of the series) unless noted.
In short: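 Hydroperoxide product was detected by ferrous iron/xylenol orange as the 573 to 405 nm absorbance ratio. Arachidonic acid at 40 uM (final) was turned over for 30 min at room temperature by 150 nM human 12hLO, pH 7.0 Hepes buffer, after 15 min compound preincubation.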
With `CC(C(=O)NCCS(=O)(=O)c1ccc(Cl)cc1)S(=O)(=O)c1ccccc1` (stereo not drawn) the Potency was “inactive”. For `COC(=O)CC1=NN(c2ccccc2)C(=O)/C1=C\c1ccc(OC)cc1`, the Potency was inconclusive: 31.6 µM [inhibitor, partial curve]. For `CC(O)C(NC(=O)c1cc(Cl)ccc1F)C(=O)O` (stereo not drawn), the Potency was inconclusive: 35.5 µM [inhibitor, partial curve, poor fit]. In the case of `CC(C)(C)c1cc(C(=O)N2CCCC2)nn2cccc12`, the Potency is reported as inconclusive: 70.8 µM [inhibitor, partial curve, poor fit]. With `CC(C)O/N=C1\C(=O)N(c2ccccc2)c2ccccc21` the Potency was inconclusive: 112 µM [inhibitor, partial curve, poor fit]. With `COc1ccc(-c2cc(N)n(S(=O)(=O)c3ccc(C)cc3)n2)c(OC)c1` the Potency was inconclusive: 2.82 µM [inhibitor, full curve, poor fit]. `Cc1ccc(CNC(=O)CCCn2c(=O)[nH]c3ccccc3c2=O)cc1` was tested, and the Potency was inconclusive: 126 µM [inhibitor, single point]. In the case of `CCOc1ccc(NC(=O)c2ccc(NC(=O)COC(=O)c3ccc(NC(=O)CC#N)cc3)cc2)cc1`, the Potency is reported as inconclusive: 2 µM [inhibitor, full curve, poor fit]. `Oc1c(Br)cc(Cl)cc1Cc1cc(Cl)cc(Br)c1O` was tested, and the Potency was active: 28.2 µM. With `Cc1cc(C)nc(SCCCNCc2c(F)cccc2Cl)n1` the Potency was “inactive”. `COc1ccc(C2C=C(c3ccccc3)Nc3ncnn32)cc1` (stereo not drawn) was tested, and the Potency was “inactive”. For `CCOCCOC(=O)C(C)Oc1ccc2c(=O)c(Oc3cccc(C)c3)c(C(F)(F)F)oc2c1` (stereo not drawn), the Potency was inconclusive: 3.98 µM [inhibitor, full curve, poor fit]. In the case of `CCOC(=O)N/N=C\c1ccc(-c2cccc(C(F)(F)F)c2)o1`, the Potency is reported as inconclusive: 89.1 µM [inhibitor, partial curve, poor fit]. `O=C(CC1C(=O)NCCN1CC(c1ccccc1)c1ccccc1)NCc1ccoc1` (stereo not drawn) was tested, and the Potency was inconclusive: 22.4 µM [inhibitor, partial curve]. For `O=C(c1ccco1)N1N=C(c2c(-c3ccccc3)c3ccccc3[nH]c2=O)CC1c1ccccc1` (stereo not drawn), the Potency was inconclusive: 100 µM [inhibitor, single point]. With `Cc1ccccc1C(=O)NNc1ccc(-c2csnn2)cc1` the Potency was inconclusive: 112 µM [inhibitor, single point]. With `Cc1ccc(OCC(=O)Nc2ccc(S(=O)(=O)Nc3nccs3)cc2)cc1` the Potency was “inactive”. With `COc1ccc(-c2nc3c(C(C)(C)C)cc(C(C)(C)C)c(O)c3o2)cc1OC` the Potency was inconclusive: 31.6 µM [inhibitor, partial curve]. With `CC(c1ccco1)N(C(=O)c1ccccc1NS(=O)(=O)c1ccc(Cl)cc1)c1ccccn1` (stereo not drawn) the Potency was inconclusive: 56.2 µM [inhibitor, partial curve, poor fit]. For `Cc1ccc(C)c(S(=O)(=O)Nc2ccccc2C(=O)Nc2cc(C)on2)c1`, the Potency was “inactive”. For `Cc1ccc(NC(=O)Nc2nnc([C@@H]3C[C@H](O)[C@@H](CO)O3)s2)cc1`, the activity change, negative = inhibition was inconclusive: -36.4% [inhibitor]. For `O=C(CC(F)(F)F)N(Cc1ccncc1)C1CC1`, the Potency was inconclusive: 2.51 µM [inhibitor, full curve, poor fit]. `O=C(c1ccc(Cn2ccn3nc4c(c3c2=O)CCCC4)cc1)N1CCN(c2ccccn2)CC1` was tested, and the Potency was “inactive”. `CCS(=O)(=O)Nc1ccc(Cc2ccc(NS(=O)(=O)CC)cc2)cc1` was tested, and the Potency was “inactive”. For `COc1cccc(-c2csc(N3CCN(C(=O)Nc4ccc(Cl)cc4)CC3)n2)c1`, the Potency was “inactive”. With `CC(C)CNC(=O)c1cnn2c(C(F)(F)F)cc(C(F)(F)F)nc12` the Potency was inconclusive: 100 µM [inhibitor, partial curve, poor fit]. In the case of `CN(C(=O)Cc1cccc(Cl)c1)C1CCCc2ccccc21` (stereo not drawn), the Potency is reported as “inactive”. With `Cc1ccc(-n2nc3c(c2NC(=O)c2ccccc2Br)CS(=O)C3)cc1` (stereo not drawn) the Potency was inconclusive: 89.1 µM [inhibitor, single point]. With `COC(=O)c1c(N)sc(Cc2ccccc2)c1C` the Potency was “inactive”. With `Nc1nc(N)c(N=Nc2ccc(Cl)cc2)c(=O)[nH]1` the Potency was inconclusive: 79.4 µM [inhibitor, partial curve, poor fit]. For `Cc1ccc(C)c(-c2cc(C(=O)NC3CC3)c3ccccc3n2)c1`, the Potency was inconclusive: 79.4 µM [inhibitor, partial curve, poor fit]. In the case of `O=C(OCC(=O)c1cccs1)c1ccccc1`, the Potency is reported as “inactive”. For `COc1ccc(N2C(=O)/C(=C\c3ccco3)N=C2SCC(=O)NC(C)(C)C)cc1Cl`, the Potency was inconclusive: 70.8 µM [inhibitor, single point]. In the case of `Cc1ccc(-c2nc3n(n2)Cc2ccccc2-3)cc1`, the Potency is reported as “inactive”. With `COC(=O)CCCC[C@@H]1O[C@H](CCc2ccccc2)Cc2[nH][nH]c(=O)c21` the Potency was “inactive”. `O=C(NCc1cccc(Cl)c1)C1CCCN(c2ncnc3c2nc2n3CCCCC2)C1` (stereo not drawn) was tested, and the Potency was “inactive”. `Fc1ccccc1COc1ccc2ccccc2c1CNc1nn[nH]n1` was tested, and the Potency was “inactive”. In the case of `O=S(=O)(c1ccc(-c2csc(=Nc3ccc(OC(F)(F)Cl)cc3)n2CCCO)cc1)N1CCCC1`, the Potency is reported as inconclusive: 141 µM [inhibitor, single point]. In the case of `CN(C(=O)CCc1ncc(-c2ccccc2)o1)C1CCS(=O)(=O)C1` (stereo not drawn), the Potency is reported as inconclusive: 112 µM [inhibitor, partial curve, poor fit]. `Cc1cc(C(=O)Nc2nc(-c3ccccn3)cs2)ccc1[N+](=O)[O-]` was tested, and the Potency was “inactive”. With `CCCCn1c(NC(=O)c2ccco2)c(S(=O)(=O)c2ccc(C)cc2)c2nc3ccccc3nc21` the Potency was inconclusive: 39.8 µM [inhibitor, partial curve, poor fit]. With `COC(=O)c1ccc2c(C)c(C3(O)CCCCC3)[nH]c2c1` the Potency was inconclusive: 126 µM [inhibitor, partial curve, poor fit]. `CC(CC(=O)Nc1ccccc1)(C(=O)O)c1ccccc1` (stereo not drawn) was tested, and the Potency was inconclusive: 39.8 µM [inhibitor, partial curve, poor fit]. `C/C(=N\NC(=O)C1CC1)c1ccc(OC(F)F)cc1OC(F)F` was tested, and the Potency was “inactive”. In the case of `OCCN(Cc1ccccc1)CC(O)COc1ccc(-c2ccccc2)cc1` (stereo not drawn), the Potency is reported as inconclusive: 50.1 µM [inhibitor, partial curve, poor fit]. In the case of `CN(Cc1ccc(F)cc1)C(=O)Nc1ccc(Cl)cc1`, the Potency is reported as inconclusive: 31.6 µM [inhibitor, full curve]. `Cc1c(/C(O)=C2\C(=O)C(=O)N(CCN(C)C)C2c2cccs2)cnn1-c1ccccc1` (stereo not drawn) was tested, and the Potency was inconclusive: 0.794 µM [inhibitor, full curve, poor fit]. With `CC1=C(C(=O)N(C(C)C)C(C)C)CC(CC(=O)NCc2cccs2)C(=O)N1Cc1ccc(F)cc1` (stereo not drawn) the Potency was “inactive”. In the case of `O=c1c2ccccc2nc(-c2ccccc2)n1Cc1ccco1`, the Potency is reported as “inactive”. For `Fc1cccc(Cl)c1CNCCSc1nnnn1-c1ccccc1`, the Potency was inconclusive: 79.4 µM [inhibitor, partial curve, poor fit]. `O=C(OCc1ncc(-c2ccc(Cl)cc2)o1)c1ccc(F)cc1` was tested, and the Potency was inconclusive: 14.1 µM [inhibitor, full curve, poor fit]. For `CN(C(=O)c1cccc(NC(=O)Cc2cccc(NC(=O)C3CCCN(C(=O)C4CCCCC4)C3)c2)c1)C1CCC1` (stereo not drawn), the Potency was inconclusive: 35.5 µM [inhibitor, single point]. In the case of `O=[N+]([O-])c1ccc(S(=O)(=O)NCC(c2ccco2)N2CCc3ccccc3C2)cc1` (stereo not drawn), the Potency is reported as active: 14.1 µM. `CC(C)NC(=O)c1ccccc1N(Cc1ccccc1)S(C)(=O)=O` was tested, and the Potency was “inactive”. In the case of `Cn1cc(CN2CCC(C(=O)NC(c3ccc(-c4ccccc4)cc3)c3cnccn3)CC2)c2ccccc21` (stereo not drawn), the Potency is reported as inconclusive: 44.7 µM [inhibitor, partial curve, poor fit]. In the case of `COc1ccc(C)cc1NC(=O)CNC(=O)CNc1cccc(Cl)c1`, the Potency is reported as “inactive”. `CC(C)c1ccc(-c2cc(=O)c3cc(NC(=O)C(C)(C)C)ccc3o2)cc1` was tested, and the Potency was “inactive”. In the case of `CN1CC(=O)N(C2CCCNC2)Cc2c(NC3CCC3)ncnc21` (stereo not drawn), the Potency is reported as inconclusive: 2.82 µM [inhibitor, full curve, poor fit]. For `Cc1[nH]n(-c2ccc([N+](=O)[O-])cc2)c(=O)c1/C=N/N1CCOCC1`, the Potency was “inactive”. For `COc1ccc(C(c2nnnn2C2CCCC2)N2CCC(C)CC2)cc1` (stereo not drawn), the Potency was inconclusive: 44.7 µM [inhibitor, single point]. For `O=[N+]([O-])c1ccc(CN2CCN(c3ccc(F)cc3)CC2)o1`, the Potency was inconclusive: 0.631 µM [inhibitor, full curve]. In the case of `COC(=O)c1ccc2c(c1)C(C)(C)C(/C=C/c1ccc(O)cc1)=[N+]2C`, the Potency is reported as active: 5.62 µM. `CCOC(=O)c1c(-c2ccccc2)csc1NC(=O)c1cc(-c2ccccc2OC)on1` was tested, and the Potency was inconclusive: 50.1 µM [inhibitor, partial curve, poor fit]. `CCc1ccccc1NC(=O)c1cc2sccc2n1C` was tested, and the Potency was inconclusive: 100 µM [inhibitor, single point]. `O=C(CN1C(=O)c2ccccc2S1(=O)=O)c1ccc(F)cc1` was tested, and the Potency was “inactive and inconclusive: 28.2 µM [inhibitor, partial curve]”. For `COc1ccc(S(=O)(=O)N2CCN(Cc3ccc(C(F)(F)F)cc3)CC2)cc1OC`, the Potency was inconclusive: 70.8 µM [inhibitor, single point]. For `Cc1cc2nc(-c3ccc(C#N)cc3)c(Cc3ccsc3)n2c(C)c1Br`, the Potency was inconclusive: 35.5 µM [inhibitor, single point]. With `Cc1ccccc1-c1nccc(NCCN2CCOCC2)n1` the Potency was active: 39.8 µM.
